Some of the results follow.
Columns and labels:
Assay in all cases: log2 fold change, soluble protein after heating vs DMSO (PISA); higher = thermal stabilisation; K562 lysate, 10 uM; active = over 0.2 and 3.5 SD of the protein, either way, in both replicates (recomputed)
vemurafenib = compound: CCCS(=O)(=O)Nc1ccc(F)c(C(=O)c2c[nH]c3ncc(-c4ccc(Cl)cc4)cc23)c1F [vemurafenib]
In short: (§1)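 K562 pellets were dounce-homogenised in PBS pH 7.4 with 1 mM MgCl2, and the crude extract at 1 mg/mL protein was treated with 10 μM compound for 30 min. Aliquots were heated for 3 min across 48°C-58°C, pooled, and brought to 0.5% NP-40 at 4°C; soluble protein was the supernatant after 21,000xg for 90 min. Soluble protein was quantified by TMTpro 16plex LC-MS/MS with channel sums equalised, and reported as log2 fold change in thermal stability against DMSO controls, with values from duplicates.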

Amino acid sequences for entries named in this document (tags omitted). A change or cut given only in a name is not applied to a line headed by its entry.
UniProt Q12996: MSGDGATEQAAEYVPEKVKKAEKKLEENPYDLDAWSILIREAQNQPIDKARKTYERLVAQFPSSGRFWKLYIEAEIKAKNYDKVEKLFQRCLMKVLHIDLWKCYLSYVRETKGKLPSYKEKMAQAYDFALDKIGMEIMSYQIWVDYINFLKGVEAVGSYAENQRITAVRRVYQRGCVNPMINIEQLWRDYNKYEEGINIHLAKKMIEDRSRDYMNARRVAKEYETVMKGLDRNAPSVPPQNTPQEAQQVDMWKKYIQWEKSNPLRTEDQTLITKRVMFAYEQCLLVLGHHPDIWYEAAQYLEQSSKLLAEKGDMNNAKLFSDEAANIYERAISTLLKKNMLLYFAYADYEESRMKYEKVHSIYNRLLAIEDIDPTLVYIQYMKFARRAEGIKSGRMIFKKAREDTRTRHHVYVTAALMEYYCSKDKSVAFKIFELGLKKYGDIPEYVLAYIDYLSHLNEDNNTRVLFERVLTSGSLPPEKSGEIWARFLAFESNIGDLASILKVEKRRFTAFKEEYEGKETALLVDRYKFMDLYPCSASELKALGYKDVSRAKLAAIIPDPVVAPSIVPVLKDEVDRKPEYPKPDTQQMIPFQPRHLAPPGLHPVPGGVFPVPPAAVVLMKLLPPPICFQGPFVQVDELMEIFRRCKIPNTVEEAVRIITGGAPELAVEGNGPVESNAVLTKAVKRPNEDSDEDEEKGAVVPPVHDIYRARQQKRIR
UniProt O43169: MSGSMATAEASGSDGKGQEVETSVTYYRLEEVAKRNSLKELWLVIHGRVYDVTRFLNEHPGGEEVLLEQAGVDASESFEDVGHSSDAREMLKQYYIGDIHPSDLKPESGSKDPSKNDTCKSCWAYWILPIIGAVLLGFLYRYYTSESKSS
UniProt P21291: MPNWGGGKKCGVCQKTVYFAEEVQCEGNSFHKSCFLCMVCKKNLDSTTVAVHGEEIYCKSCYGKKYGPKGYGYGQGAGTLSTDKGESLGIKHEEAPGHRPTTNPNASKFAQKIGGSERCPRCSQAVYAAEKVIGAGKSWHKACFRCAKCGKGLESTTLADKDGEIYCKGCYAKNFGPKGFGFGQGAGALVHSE
UniProt Q92793, whole entry, looked up: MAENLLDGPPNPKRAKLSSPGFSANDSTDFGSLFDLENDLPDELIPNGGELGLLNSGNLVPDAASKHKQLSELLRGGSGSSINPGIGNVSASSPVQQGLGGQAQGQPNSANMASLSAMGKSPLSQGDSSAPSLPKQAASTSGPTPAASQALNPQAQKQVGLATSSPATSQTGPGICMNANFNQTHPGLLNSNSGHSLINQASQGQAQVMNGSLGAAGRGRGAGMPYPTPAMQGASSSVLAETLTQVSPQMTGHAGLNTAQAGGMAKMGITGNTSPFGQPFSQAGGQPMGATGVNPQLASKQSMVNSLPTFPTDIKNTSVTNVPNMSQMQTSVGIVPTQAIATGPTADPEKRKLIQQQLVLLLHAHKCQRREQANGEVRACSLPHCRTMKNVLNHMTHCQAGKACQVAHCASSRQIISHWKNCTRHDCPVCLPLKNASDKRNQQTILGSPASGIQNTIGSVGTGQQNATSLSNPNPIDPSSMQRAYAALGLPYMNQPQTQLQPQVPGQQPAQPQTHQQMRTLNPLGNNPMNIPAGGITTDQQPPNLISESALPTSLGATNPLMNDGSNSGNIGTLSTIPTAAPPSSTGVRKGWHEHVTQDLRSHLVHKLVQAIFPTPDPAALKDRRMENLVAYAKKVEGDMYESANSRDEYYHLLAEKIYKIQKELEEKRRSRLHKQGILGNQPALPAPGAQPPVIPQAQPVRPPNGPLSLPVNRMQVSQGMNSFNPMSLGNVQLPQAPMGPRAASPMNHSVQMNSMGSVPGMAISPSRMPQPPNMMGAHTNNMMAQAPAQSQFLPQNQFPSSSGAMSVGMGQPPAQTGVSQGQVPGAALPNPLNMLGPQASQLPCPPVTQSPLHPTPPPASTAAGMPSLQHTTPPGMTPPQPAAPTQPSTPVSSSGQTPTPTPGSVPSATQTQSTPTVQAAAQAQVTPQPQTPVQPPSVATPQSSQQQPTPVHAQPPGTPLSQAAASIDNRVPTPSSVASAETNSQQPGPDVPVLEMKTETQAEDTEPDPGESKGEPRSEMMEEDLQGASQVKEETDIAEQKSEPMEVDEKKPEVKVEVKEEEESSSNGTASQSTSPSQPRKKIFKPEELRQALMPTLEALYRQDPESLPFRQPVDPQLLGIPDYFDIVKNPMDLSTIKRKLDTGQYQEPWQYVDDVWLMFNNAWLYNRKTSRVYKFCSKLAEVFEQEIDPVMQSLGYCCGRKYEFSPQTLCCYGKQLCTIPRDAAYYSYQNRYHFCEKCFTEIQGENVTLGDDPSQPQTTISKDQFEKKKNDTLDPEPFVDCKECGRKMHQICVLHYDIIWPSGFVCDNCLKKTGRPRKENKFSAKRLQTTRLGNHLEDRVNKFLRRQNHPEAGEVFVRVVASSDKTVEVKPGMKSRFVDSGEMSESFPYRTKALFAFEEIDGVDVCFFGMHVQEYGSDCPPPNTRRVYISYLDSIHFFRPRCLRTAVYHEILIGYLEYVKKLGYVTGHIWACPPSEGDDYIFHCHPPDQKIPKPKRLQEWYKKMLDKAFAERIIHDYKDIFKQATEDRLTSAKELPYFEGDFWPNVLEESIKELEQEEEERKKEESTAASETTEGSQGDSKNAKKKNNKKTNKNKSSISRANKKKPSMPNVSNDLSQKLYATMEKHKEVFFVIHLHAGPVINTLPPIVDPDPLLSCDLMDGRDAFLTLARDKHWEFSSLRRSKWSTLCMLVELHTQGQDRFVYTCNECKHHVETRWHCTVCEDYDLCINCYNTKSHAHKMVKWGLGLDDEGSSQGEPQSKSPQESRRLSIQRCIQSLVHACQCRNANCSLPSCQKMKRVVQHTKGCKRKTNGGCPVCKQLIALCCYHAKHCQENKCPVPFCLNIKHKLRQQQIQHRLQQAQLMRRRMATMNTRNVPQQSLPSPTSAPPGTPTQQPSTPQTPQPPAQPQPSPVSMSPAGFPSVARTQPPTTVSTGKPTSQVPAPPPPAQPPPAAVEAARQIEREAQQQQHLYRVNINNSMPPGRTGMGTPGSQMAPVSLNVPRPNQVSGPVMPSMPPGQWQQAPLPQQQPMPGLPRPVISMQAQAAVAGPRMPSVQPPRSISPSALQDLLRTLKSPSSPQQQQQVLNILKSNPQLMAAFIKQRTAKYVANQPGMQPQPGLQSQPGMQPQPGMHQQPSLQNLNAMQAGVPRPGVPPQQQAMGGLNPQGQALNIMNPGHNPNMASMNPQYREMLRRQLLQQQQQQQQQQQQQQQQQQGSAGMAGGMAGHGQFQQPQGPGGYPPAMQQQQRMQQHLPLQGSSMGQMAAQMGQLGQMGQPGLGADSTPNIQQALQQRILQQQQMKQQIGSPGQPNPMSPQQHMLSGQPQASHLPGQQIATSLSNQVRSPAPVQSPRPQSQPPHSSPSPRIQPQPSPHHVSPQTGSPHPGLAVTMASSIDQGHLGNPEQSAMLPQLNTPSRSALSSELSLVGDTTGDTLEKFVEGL
UniProt P50461: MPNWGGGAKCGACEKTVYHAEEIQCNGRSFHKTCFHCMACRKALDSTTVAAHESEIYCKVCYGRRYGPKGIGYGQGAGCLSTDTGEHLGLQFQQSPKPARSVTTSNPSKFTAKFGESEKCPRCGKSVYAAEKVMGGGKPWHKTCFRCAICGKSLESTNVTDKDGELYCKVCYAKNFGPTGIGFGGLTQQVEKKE
UniProt Q13618, whole entry, looked up: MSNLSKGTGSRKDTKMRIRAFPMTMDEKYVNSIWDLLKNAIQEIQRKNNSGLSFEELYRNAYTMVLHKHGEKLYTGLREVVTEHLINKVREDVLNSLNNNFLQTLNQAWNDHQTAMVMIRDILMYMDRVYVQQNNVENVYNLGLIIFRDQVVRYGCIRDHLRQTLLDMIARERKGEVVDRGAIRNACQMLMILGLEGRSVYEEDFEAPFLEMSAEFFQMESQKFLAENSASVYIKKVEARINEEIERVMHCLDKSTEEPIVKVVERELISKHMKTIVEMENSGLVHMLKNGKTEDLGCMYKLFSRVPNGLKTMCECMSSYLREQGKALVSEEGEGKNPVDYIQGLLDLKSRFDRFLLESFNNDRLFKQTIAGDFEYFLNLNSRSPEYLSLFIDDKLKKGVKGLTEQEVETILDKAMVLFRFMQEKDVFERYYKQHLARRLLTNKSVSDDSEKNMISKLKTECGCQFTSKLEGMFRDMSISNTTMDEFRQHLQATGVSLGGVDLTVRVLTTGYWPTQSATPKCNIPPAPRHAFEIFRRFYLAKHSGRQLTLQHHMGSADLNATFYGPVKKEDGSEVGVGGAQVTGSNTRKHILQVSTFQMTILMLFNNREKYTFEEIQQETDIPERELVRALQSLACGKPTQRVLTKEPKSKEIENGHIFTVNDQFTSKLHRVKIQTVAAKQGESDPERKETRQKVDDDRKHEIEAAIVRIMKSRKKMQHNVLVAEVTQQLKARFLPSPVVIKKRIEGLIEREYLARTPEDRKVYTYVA
UniProt O43310: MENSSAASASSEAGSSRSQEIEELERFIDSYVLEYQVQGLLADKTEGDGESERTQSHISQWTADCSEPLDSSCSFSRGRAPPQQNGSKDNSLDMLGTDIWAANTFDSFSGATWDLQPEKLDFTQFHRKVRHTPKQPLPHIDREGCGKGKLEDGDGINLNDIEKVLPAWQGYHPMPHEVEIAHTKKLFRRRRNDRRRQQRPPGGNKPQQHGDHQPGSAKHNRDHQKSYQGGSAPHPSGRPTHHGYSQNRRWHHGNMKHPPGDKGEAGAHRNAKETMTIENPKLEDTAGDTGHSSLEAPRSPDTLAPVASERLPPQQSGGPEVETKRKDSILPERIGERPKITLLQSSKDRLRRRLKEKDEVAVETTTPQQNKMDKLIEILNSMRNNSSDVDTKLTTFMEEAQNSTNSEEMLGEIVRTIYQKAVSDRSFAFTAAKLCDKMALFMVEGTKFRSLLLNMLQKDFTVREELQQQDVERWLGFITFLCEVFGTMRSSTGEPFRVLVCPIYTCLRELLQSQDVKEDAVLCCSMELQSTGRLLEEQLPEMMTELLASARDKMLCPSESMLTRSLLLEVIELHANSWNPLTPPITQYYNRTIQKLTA
UniProt Q96F07, whole entry, looked up: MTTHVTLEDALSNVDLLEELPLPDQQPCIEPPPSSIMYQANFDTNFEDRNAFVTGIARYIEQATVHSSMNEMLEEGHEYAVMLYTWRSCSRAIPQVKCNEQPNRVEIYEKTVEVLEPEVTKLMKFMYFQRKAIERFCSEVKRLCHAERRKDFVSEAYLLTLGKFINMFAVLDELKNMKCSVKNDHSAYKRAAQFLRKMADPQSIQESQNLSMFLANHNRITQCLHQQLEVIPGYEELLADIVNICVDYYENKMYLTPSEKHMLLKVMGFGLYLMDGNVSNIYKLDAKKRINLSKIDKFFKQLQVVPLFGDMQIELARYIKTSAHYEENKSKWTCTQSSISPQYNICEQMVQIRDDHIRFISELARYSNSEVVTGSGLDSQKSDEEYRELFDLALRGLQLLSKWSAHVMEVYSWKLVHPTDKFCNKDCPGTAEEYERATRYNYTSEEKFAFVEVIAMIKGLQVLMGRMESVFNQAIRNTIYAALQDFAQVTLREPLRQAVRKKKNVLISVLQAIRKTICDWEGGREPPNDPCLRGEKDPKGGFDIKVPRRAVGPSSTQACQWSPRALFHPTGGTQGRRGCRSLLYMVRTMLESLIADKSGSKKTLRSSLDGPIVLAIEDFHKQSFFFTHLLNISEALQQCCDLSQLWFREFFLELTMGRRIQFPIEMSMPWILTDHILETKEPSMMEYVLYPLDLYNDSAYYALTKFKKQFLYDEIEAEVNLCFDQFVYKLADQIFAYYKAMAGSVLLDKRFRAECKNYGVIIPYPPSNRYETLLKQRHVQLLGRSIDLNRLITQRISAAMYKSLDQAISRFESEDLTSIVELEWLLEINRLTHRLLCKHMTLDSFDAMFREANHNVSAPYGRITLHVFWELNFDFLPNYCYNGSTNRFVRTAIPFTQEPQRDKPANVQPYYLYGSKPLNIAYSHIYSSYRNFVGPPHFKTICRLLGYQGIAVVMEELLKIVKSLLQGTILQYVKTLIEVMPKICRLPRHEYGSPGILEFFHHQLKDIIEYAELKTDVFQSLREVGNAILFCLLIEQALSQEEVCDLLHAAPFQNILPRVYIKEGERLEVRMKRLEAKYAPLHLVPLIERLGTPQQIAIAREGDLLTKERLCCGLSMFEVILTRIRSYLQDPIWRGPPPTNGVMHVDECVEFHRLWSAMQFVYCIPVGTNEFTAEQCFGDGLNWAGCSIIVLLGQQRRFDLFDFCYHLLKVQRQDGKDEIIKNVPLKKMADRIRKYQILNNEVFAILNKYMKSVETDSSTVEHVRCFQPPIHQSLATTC

[1] = compound: CCCS(=O)(=O)Nc1ccc(F)c(C(=O)c2c[nH]c3ncc(Cl)cc23)c1F
In short: as §1

barasertib = compound: CCN(CCCOc1ccc2c(Nc3cc(CC(=O)Nc4cccc(F)c4)[nH]n3)ncnc2c1)CCOP(=O)(O)O [barasertib]
In short: as §1

[2] = compound: CC[C@@H]1C(=O)N(C)c2cnc(Nc3ccc(C(=O)NC4CCN(C)CC4)cc3OC)nc2N1C1CCCC1
In short: as §1

volasertib = compound: CC[C@@H]1C(=O)N(C)c2cnc(Nc3ccc(C(=O)N[C@H]4CC[C@H](N5CCN(CC6CC6)CC5)CC4)cc3OC)nc2N1C(C)C [volasertib]
In short: as §1

[3] = compound: CCn1c(C(=O)N(C2CC2)C2CC2)cc2c3c(ncn3C)c(Nc3cc(C)n(C)n3)nc21
In short: as §1

[4] = compound: CCn1cc(-c2ccnc3[nH]c(-c4cccc(CN(C)C)c4)cc23)c(-c2ccc(NC(=O)N(C)C)cc2)n1
In short: as §1

[5] = compound: CN1CCC(CNc2ccc3ncc(-c4cccc(OC(F)(F)F)c4)n3n2)CC1
In short: as §1

saracatinib = compound: CN1CCN(CCOc2cc(OC3CCOCC3)c3c(Nc4c(Cl)ccc5c4OCO5)ncnc3c2)CC1 [saracatinib]
In short: as §1

sotrastaurin = compound: CN1CCN(c2nc(C3=C(c4c[nH]c5ccccc45)C(=O)NC3=O)c3ccccc3n2)CC1 [sotrastaurin]
In short: as §1

Measured: log2 fold change

CTTN (UniProt Q14247)
inactive: vemurafenib -0.008 | [1] -0.001 | barasertib -0.054 | [2] 0.038 | volasertib 0.033 | [3] 0.002 | [4] -0.006 | [5] 0.052 | saracatinib -0.06 | sotrastaurin 0.025

CTCF (UniProt P49711)
inactive: vemurafenib 0.032 | [1] 0.01 | barasertib -0.017 | [2] 0.063 | volasertib 0 | [3] -0.003 | [4] 0.103 | [5] -0.084 | saracatinib 0 | sotrastaurin 0.019

CSNK1A1 (UniProt P48729)
inactive: vemurafenib -0.044 | [1] 0.017 | barasertib -0.003 | [2] 0.078 | volasertib -0.066 | [3] 0.097 | [4] 0.065 | [5] 0.171 | saracatinib 0.02 | sotrastaurin 0.048

CYB561A3 isoform 2 (UniProt Q8NBI2)
inactive: vemurafenib 0.007 | [1] -0.007 | barasertib 0.03 | [2] 0.022 | volasertib 0.029 | [3] -0.04 | [4] -0.43 | [5] 0.242 | saracatinib 0.113 | sotrastaurin 0.013

CRLF3 (UniProt Q8IUI8)
inactive: vemurafenib 0.028 | [1] 0.015 | barasertib 0.003 | [2] -0.006 | volasertib -0.038 | [3] -0.014 | [4] -0.092 | [5] 0.064 | saracatinib -0.024 | sotrastaurin 0

CSTF3 (UniProt Q12996)
inactive: vemurafenib -0.042 | [1] 0.007 | barasertib 0.032 | [2] -0.02 | volasertib -0.045 | [3] 0.028 | [4] 0.019 | [5] -0.054 | saracatinib 0.017 | sotrastaurin 0.013

CYB5B (UniProt O43169)
inactive: vemurafenib 0.009 | [1] 0.017 | barasertib 0.202 | [2] 0.092 | volasertib 0.051 | [3] -0.008 | [4] -0.091 | [5] -0.058 | saracatinib 0.096 | sotrastaurin -0.021

CTNNA2 (UniProt P26232)
inactive: vemurafenib 0.044 | [1] 0.028 | barasertib 0.035 | [2] 0.025 | volasertib 0.006 | [3] -0.015 | [4] -0.106 | [5] 0.066 | saracatinib 0.028 | sotrastaurin -0.093

CSTB (UniProt P04080)
inactive: vemurafenib 0.007 | [1] 0.001 | barasertib 0.077 | [2] 0.043 | volasertib 0.044 | [3] -0.027 | [5] 0.174 | saracatinib 0.013 | sotrastaurin 0.086
active: [4] -0.376

CRPPA (UniProt A4D126)
inactive: vemurafenib -0.026 | [1] 0.012 | barasertib 0 | [2] 0.025 | volasertib 0.03 | [3] -0.001 | [4] -0.038 | [5] 0.035 | saracatinib -0.013 | sotrastaurin 0.041

CSRP1 (UniProt P21291)
inactive: vemurafenib -0.006 | [1] -0.018 | barasertib -0.022 | [2] 0.021 | volasertib 0.029 | [3] -0.015 | [4] -0.071 | [5] 0.067 | saracatinib 0.023 | sotrastaurin -0.081

CTSC (UniProt P53634)
inactive: vemurafenib -0.001 | [1] 0.012 | barasertib -0.006 | [2] 0.062 | volasertib -0.004 | [3] 0.011 | [4] -0.146 | [5] 0.09 | saracatinib -0.032 | sotrastaurin 0.036

CREBBP (UniProt Q92793)
inactive: vemurafenib 0.022 | [1] -0.064 | barasertib 0.001 | [2] 0.042 | volasertib -0.074 | [3] -0.017 | [4] 0.079 | [5] -0.004 | saracatinib 0.017 | sotrastaurin -0.001

CTR9 (UniProt Q6PD62)
inactive: vemurafenib -0.008 | [1] 0.002 | barasertib 0.017 | [2] -0.015 | volasertib -0.037 | [3] 0.021 | [4] -0.024 | [5] 0.003 | saracatinib 0.021 | sotrastaurin 0.001

CTNNBL1 (UniProt Q8WYA6)
inactive: vemurafenib 0.004 | [1] 0.016 | barasertib 0.005 | [2] -0.042 | volasertib -0.041 | [3] -0.16 | [4] -0.013 | [5] -0.091 | saracatinib 0.023 | sotrastaurin 0.015

CRTC1 (UniProt Q6UUV9)
inactive: vemurafenib 0.081 | [1] -0.068 | barasertib -0.196 | [2] 0.051 | volasertib 0.002 | [3] 0.044 | [4] 0.001 | [5] 0.054 | saracatinib 0.035 | sotrastaurin -0.073

CSRP3 (UniProt P50461)
inactive: vemurafenib -0.028 | [1] -0.006 | barasertib -0.05 | [2] -0.003 | volasertib 0.049 | [3] -0.063 | [4] -0.048 | [5] 0.198 | saracatinib -0.058 | sotrastaurin -0.266

CXorf56 (UniProt Q9H5V9)
inactive: vemurafenib 0.006 | [1] -0.004 | barasertib -0.04 | [2] -0.008 | volasertib 0.009 | [3] -0.033 | [4] 0.031 | [5] -0.013 | saracatinib 0.008 | sotrastaurin -0.008

CRTAP (UniProt O75718)
inactive: vemurafenib -0.036 | [1] 0.007 | barasertib -0.061 | [2] -0.069 | volasertib -0.012 | [3] 0.106 | [4] 0.026 | [5] 0 | saracatinib 0.034 | sotrastaurin 0.018

CUL3 (UniProt Q13618)
inactive: vemurafenib 0.007 | [1] 0.011 | barasertib 0.002 | [2] -0.028 | volasertib -0.008 | [3] 0.028 | [4] 0 | [5] -0.051 | saracatinib 0.006 | sotrastaurin -0.003

CT47A1 (UniProt Q5JQC4)
inactive: vemurafenib 0.071 | [1] 0.031 | barasertib -0.012 | [2] 0.056 | volasertib -0.023 | [3] -0.062 | [4] -0.073 | [5] -0.069 | saracatinib 0.084 | sotrastaurin 0.028

CSTF2T (UniProt Q9H0L4)
inactive: vemurafenib -0.002 | [1] 0.002 | barasertib 0.074 | [2] 0.023 | volasertib 0.011 | [3] 0.002 | [4] -0.012 | [5] 0.028 | saracatinib -0.004 | sotrastaurin -0.002

CWF19L1 (UniProt Q69YN2)
inactive: vemurafenib 0.027 | [1] 0.025 | barasertib -0.052 | [2] 0.006 | volasertib -0.016 | [3] 0.014 | [4] 0.06 | [5] -0.029 | saracatinib 0.01 | sotrastaurin -0.005

CRTC2 (UniProt Q53ET0)
inactive: vemurafenib 0.077 | [1] 0.064 | barasertib 0.09 | [2] 0.065 | volasertib 0.064 | [3] -0.018 | [4] -0.012 | [5] -0.042 | saracatinib 0.067 | sotrastaurin 0

CRYZ (UniProt Q08257)
inactive: vemurafenib 0.001 | [1] -0.016 | barasertib -0.01 | [2] 0.045 | volasertib 0.038 | [3] -0.023 | [4] -0.086 | [5] 0.048 | saracatinib -0.001 | sotrastaurin -0.008

CRIPT (UniProt Q9P021)
inactive: vemurafenib -0.077 | [1] -0.161 | barasertib -0.016 | [2] 0.018 | volasertib 0.109 | [3] -0.027 | [4] -0.01 | [5] -0.01 | saracatinib 0.036 | sotrastaurin -0.135

CTIF isoform 2 (UniProt O43310)
inactive: vemurafenib -0.056 | [1] 0.027 | barasertib -0.066 | [2] -0.048 | volasertib -0.007 | [3] -0.005 | [4] -0.157 | [5] 0.042 | saracatinib 0.067 | sotrastaurin -0.011

CYFIP2 (UniProt Q96F07)
inactive: vemurafenib -0.037 | [1] 0.001 | barasertib -0.005 | [2] 0.022 | volasertib -0.015 | [3] -0.031 | [4] -0.079 | [5] -0.002 | saracatinib 0.016 | sotrastaurin 0.019

CRK (UniProt P46108)
inactive: vemurafenib -0.017 | [1] -0.014 | barasertib -0.033 | [2] 0.02 | volasertib 0.006 | [3] 0.004 | [4] 0.111 | [5] 0.036 | saracatinib -0.012 | sotrastaurin 0.001

Quoted from above (nine entries):
CTSC (UniProt P53634)
inactive: vemurafenib -0.001 | [1] 0.012 | barasertib -0.006 | [2] 0.062 | volasertib -0.004 | [3] 0.011 | [4] -0.146 | [5] 0.09 | saracatinib -0.032 | sotrastaurin 0.036

CREBBP (UniProt Q92793)
inactive: vemurafenib 0.022 | [1] -0.064 | barasertib 0.001 | [2] 0.042 | volasertib -0.074 | [3] -0.017 | [4] 0.079 | [5] -0.004 | saracatinib 0.017 | sotrastaurin -0.001

CTR9 (UniProt Q6PD62)
inactive: vemurafenib -0.008 | [1] 0.002 | barasertib 0.017 | [2] -0.015 | volasertib -0.037 | [3] 0.021 | [4] -0.024 | [5] 0.003 | saracatinib 0.021 | sotrastaurin 0.001

CTNNBL1 (UniProt Q8WYA6)
inactive: vemurafenib 0.004 | [1] 0.016 | barasertib 0.005 | [2] -0.042 | volasertib -0.041 | [3] -0.16 | [4] -0.013 | [5] -0.091 | saracatinib 0.023 | sotrastaurin 0.015

CRTC1 (UniProt Q6UUV9)
inactive: vemurafenib 0.081 | [1] -0.068 | barasertib -0.196 | [2] 0.051 | volasertib 0.002 | [3] 0.044 | [4] 0.001 | [5] 0.054 | saracatinib 0.035 | sotrastaurin -0.073

CSRP3 (UniProt P50461)
inactive: vemurafenib -0.028 | [1] -0.006 | barasertib -0.05 | [2] -0.003 | volasertib 0.049 | [3] -0.063 | [4] -0.048 | [5] 0.198 | saracatinib -0.058 | sotrastaurin -0.266

CXorf56 (UniProt Q9H5V9)
inactive: vemurafenib 0.006 | [1] -0.004 | barasertib -0.04 | [2] -0.008 | volasertib 0.009 | [3] -0.033 | [4] 0.031 | [5] -0.013 | saracatinib 0.008 | sotrastaurin -0.008

CRTAP (UniProt O75718)
inactive: vemurafenib -0.036 | [1] 0.007 | barasertib -0.061 | [2] -0.069 | volasertib -0.012 | [3] 0.106 | [4] 0.026 | [5] 0 | saracatinib 0.034 | sotrastaurin 0.018

CUL3 (UniProt Q13618)
inactive: vemurafenib 0.007 | [1] 0.011 | barasertib 0.002 | [2] -0.028 | volasertib -0.008 | [3] 0.028 | [4] 0 | [5] -0.051 | saracatinib 0.006 | sotrastaurin -0.003

More results:

CYHR1 (UniProt E9PJD7)
inactive: vemurafenib -0.004 | [1] 0.05 | barasertib 0.047 | [2] 0.024 | volasertib -0.042 | [3] 0.001 | [4] -0.002 | [5] 0.008 | saracatinib -0.031 | sotrastaurin 0.032
